{"sequences": {"note": "By UniProt entry, the sequences of proteins in these tests, tags left out. Residues count along the entry.", "UniProt Q02763, 23-1124": "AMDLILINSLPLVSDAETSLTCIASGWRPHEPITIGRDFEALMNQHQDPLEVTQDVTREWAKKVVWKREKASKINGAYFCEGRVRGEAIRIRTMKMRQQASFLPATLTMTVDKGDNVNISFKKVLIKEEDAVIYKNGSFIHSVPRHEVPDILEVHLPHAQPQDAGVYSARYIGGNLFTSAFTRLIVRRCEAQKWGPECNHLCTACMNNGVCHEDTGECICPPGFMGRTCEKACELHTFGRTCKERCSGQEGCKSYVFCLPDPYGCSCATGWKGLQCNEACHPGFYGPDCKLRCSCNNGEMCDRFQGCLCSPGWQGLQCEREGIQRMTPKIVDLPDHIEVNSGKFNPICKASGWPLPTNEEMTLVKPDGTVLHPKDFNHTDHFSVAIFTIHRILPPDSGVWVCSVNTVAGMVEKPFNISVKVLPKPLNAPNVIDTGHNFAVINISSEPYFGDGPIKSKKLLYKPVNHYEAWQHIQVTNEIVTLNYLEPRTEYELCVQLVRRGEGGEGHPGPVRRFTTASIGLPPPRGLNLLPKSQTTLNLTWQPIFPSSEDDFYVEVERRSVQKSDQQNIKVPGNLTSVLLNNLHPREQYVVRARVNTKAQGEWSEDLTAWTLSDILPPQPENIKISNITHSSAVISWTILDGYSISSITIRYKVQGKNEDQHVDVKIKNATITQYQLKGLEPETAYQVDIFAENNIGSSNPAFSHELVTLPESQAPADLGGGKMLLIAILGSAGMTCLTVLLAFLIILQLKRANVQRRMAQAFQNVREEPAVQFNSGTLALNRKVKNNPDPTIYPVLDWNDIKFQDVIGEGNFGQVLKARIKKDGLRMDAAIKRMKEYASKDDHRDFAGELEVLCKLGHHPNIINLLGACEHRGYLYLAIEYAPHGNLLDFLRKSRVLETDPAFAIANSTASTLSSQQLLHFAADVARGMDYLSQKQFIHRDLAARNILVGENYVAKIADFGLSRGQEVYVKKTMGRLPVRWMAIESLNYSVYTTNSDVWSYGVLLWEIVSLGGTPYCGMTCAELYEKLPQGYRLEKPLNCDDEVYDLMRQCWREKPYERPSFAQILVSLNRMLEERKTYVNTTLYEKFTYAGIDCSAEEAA"}, "source": "patent US8476434B2", "about": "“Protein kinase modulators and method of use” (Amgen Inc., priority 2004, dated 2013)", "note": "Some results were stated once for a whole list of compounds, not compound by compound."}
{"target": "Tie-2 kinase enzyme (Homo sapiens, UniProt Q02763)", "assay": "Tie-2 Homogenous Time Resolved Fluorescent (HTRF) kinase assay", "assay_type": "biochemical", "conditions": "read-out: IC50's for the inhibition of Tie-2 as measured by the HTRF assay", "units": {"IC50": "µM"}}
{"smiles": "CNc1ncnc(-c2cccnc2Oc2cc(C(=O)Nc3cc(OCC(F)(F)F)cc(OCC(F)(F)F)c3)ccc2C)n1", "note": "[Example 414, N-(3,5-bis((2,2,2-trifluoroethyl)oxy)phenyl)-4-methyl-3-((3-(4-(methylamino)-1,3,5-triazin-2-yl)-2-pyridinyl)oxy)benzamide]", "IC50": "< 5"}
{"smiles": "CNc1ncnc(-c2cccnc2Oc2cc(C(=O)Nc3cc(C(F)(F)F)ccc3N3CCOCC3)ccc2C)n1", "note": "[Example 415, 4-methyl-3-((3-(4-(methylamino)-1,3,5-triazin-2-yl)-2-pyridinyl)oxy)-N-(2-(4-morpholinyl)-5-(trifluoromethyl)phenyl) benzamide]", "IC50": "< 5"}
{"smiles": "CNc1ncnc(-c2cccnc2Oc2cc(C(=O)Nc3cc(C(F)(F)F)ccc3Cl)ccc2C)n1", "note": "[Example 416, N-(2-chloro-5-(trifluoromethyl)phenyl)-4-methyl-3-((3-(4-(methylamino)-1,3,5-triazin-2-yl)-2-pyridinyl)oxy)benzamide]", "IC50": "< 5"}
{"smiles": "CNc1ncnc(-c2cccnc2Oc2cc(C(=O)Nc3cc(-c4ccccc4)nn3-c3ccccc3)ccc2C)n1", "note": "[Example 417, N-(1,3-diphenyl-1H-pyrazol-5-yl)-4-methyl-3-((3-(4-(methylamino)-1,3,5-triazin-2-yl)-2-pyridinyl)oxy)benzamide]", "IC50": "< 5"}
{"smiles": "CNc1cc(-c2cccnc2Oc2cc(C(=O)Nc3ccccc3)ccc2C)ccn1", "note": "[Example 418, 4-methyl-3-((2′-(methylamino)-3,4′-bipyridin-2-yl)oxy)-N-phenylbenzamide]", "IC50": "< 5"}
{"smiles": "CNc1cc(-c2cccnc2Oc2cc(C(=O)Nc3ccc(C(C)C)cc3)ccc2C)ccn1", "note": "[Example 420, 4-methyl-3-((2′-(methylamino)-3,4′-bipyridin-2-yl)oxy)-N-(4-(1-methylethyl)phenyl) benzamide]", "IC50": "< 5"}
{"smiles": "CNc1cc(-c2cccnc2Oc2cc(C(=O)Nc3ccc(F)c(C(F)(F)F)c3)ccc2C)ccn1", "note": "[Example 421, N-(4-fluoro-3-(trifluoromethyl)phenyl)-4-methyl-3-((2′-(methylamino)-3,4′-bipyridin-2-yl)oxy)benzamide]", "IC50": "< 5"}
{"smiles": "CNc1cc(-c2cccnc2Oc2cc(C(=O)Nc3cccc(C(F)(F)F)c3C)ccc2C)ccn1", "note": "[Example 422, 4-methyl-3-((2′-(methylamino)-3,4′-bipyridin-2-yl)oxy)-N-(2-methyl-3-(trifluoromethyl)phenyl) benzamide]", "IC50": "< 5"}
{"smiles": "CNc1cc(-c2cccnc2Oc2cc(C(=O)Nc3cc(OC)cc(C(F)(F)F)c3)ccc2C)ccn1", "note": "[Example 423, 4-methyl-3-((2′-(methylamino)-3,4′-bipyridin-2-yl)oxy)-N-(3-(methyloxy)-5-(trifluoromethyl)phenyl) benzamide]", "IC50": "< 5"}
{"smiles": "CNc1cc(-c2cccnc2Oc2cc(C(=O)Nc3cc(OCC(F)(F)F)cc(OCC(F)(F)F)c3)ccc2C)ccn1", "note": "[Example 424, N-(3,5-bis((2,2,2-trifluoroethyl)oxy)phenyl)-4-methyl-3-((2′-(methylamino)-3,4′-bipyridin-2-yl)oxy)benzamide]", "IC50": "< 5"}
{"smiles": "CNc1cc(-c2cccnc2Oc2cc(C(=O)Nc3cc(C(F)(F)F)ccc3N3CCOCC3)ccc2C)ccn1", "note": "[Example 425, 4-methyl-3-((2′-(methylamino)-3,4′-bipyridin-2-yl)oxy)-N-(2-(4-morpholinyl)-5-(trifluoromethyl)phenyl) benzamide]", "IC50": "< 5"}
{"smiles": "CNc1cc(-c2cccnc2Oc2cc(C(=O)Nc3cc(C(F)(F)F)ccc3N3CCCC3)ccc2C)ccn1", "note": "[Example 426, 4-methyl-3-((2′-(methylamino)-3,4′-bipyridin-2-yl)oxy)-N-(2-(1-pyrrolidinyl)-5-(trifluoromethyl)phenyl) benzamide]", "IC50": "< 5"}
{"smiles": "CNc1cc(-c2cccnc2Oc2cc(C(=O)Nc3cc(C(F)(F)F)ccc3Cl)ccc2C)ccn1", "note": "[Example 427, N-(2-chloro-5-(trifuoromethyl)phenyl)-4-methyl-3-((2′-(methylamino)-3,4′-bipyridin-2-yl)oxy)benzamide]", "IC50": "< 5"}
{"smiles": "CNc1cc(-c2cccnc2Oc2cc(C(=O)Nc3cc(Oc4ccccc4)ccc3OC)ccc2C)ccn1", "note": "[Example 428, 4-methyl-3-((2′-(methylamino)-3,4′-bipyridin-2-yl)oxy)-N-(2-(methyloxy)-5-(phenyloxy)phenyl) benzamide]", "IC50": "< 5"}
{"smiles": "CNc1cc(-c2cccnc2Oc2cc(C(=O)Nc3cc(-c4ccccc4)ccc3OC)ccc2C)ccn1", "note": "[Example 429, 4-methyl-3-((2′-(methylamino)-3,4′-bipyridin-2-yl)oxy)-N-(4-(methyloxy)-1,1′-biphenyl-3-yl)benzamide]", "IC50": "< 5"}
{"smiles": "CNc1cc(-c2cccnc2Oc2cc(C(=O)Nc3cc(C(C)(C)C)ccc3OC)ccc2C)ccn1", "note": "[Example 430, N-(5-(1,1-dimethylethyl)-2-(methyloxy)phenyl)-4-methyl-3-((2′-(methylamino)-3,4′-bipyridin-2-yl)oxy)benzamide]", "IC50": "< 5"}
{"smiles": "CCOc1ccc(OCC)c(NC(=O)c2ccc(C)c(Oc3ncccc3-c3ccnc(NC)c3)c2)c1", "note": "[Example 431, N-(2,5-bis(ethyloxy)phenyl)-4-methyl-3-((2′-(methylamino)-3,4′-bipyridin-2-yl)oxy)benzamide]", "IC50": "< 5"}
{"smiles": "CNc1cc(-c2cccnc2Oc2cc(C(=O)Nc3cc(C(C)C)ccc3C)ccc2C)ccn1", "note": "[Example 432, 4-methyl-3-((2′-(methylamino)-3,4′-bipyridin-2-yl)oxy)-N-(2-methyl-5-(1-methylethyl)phenyl) benzamide]", "IC50": "< 5"}
{"smiles": "CNc1cc(-c2cccnc2Oc2cc(C(=O)Nc3cccc(OCc4ccccc4)c3)ccc2C)ccn1", "note": "[Example 433, 4-methyl-3-((2′-(methylamino)-3,4′-bipyridin-2-yl)oxy)-N-(3-((phenylmethyl)oxy)phenyl)benzamide]", "IC50": "< 5"}
{"smiles": "CNc1cc(-c2cccnc2Oc2cc(C(=O)Nc3cccc(-c4ccccc4)c3)ccc2C)ccn1", "note": "[Example 434, N-(1,1′-biphenyl-3-yl)-4-methyl-3-((2′-(methylamino)-3,4′-bipyridin-2-yl)oxy)benzamide]", "IC50": "< 5"}
{"smiles": "CCOc1cccc(NC(=O)c2ccc(C)c(Oc3ncccc3-c3ccnc(NC)c3)c2)c1", "note": "[Example 435, N-(3-(ethyloxy)phenyl)-4-methyl-3-((2′-(methylamino)-3,4′-bipyridin-2-yl)oxy)benzamide]", "IC50": "< 5"}
{"smiles": "CNc1cc(-c2cccnc2Oc2cc(C(=O)Nc3cccc(OC(C)C)c3)ccc2C)ccn1", "note": "[Example 436, 4-methyl-3-((2′-(methylamino)-3,4′-bipyridin-2-yl)oxy)-N-(3-((1-methylethyl)oxy)phenyl) benzamide]", "IC50": "< 5"}
{"smiles": "CNc1cc(-c2cccnc2Oc2cc(C(=O)Nc3cccc(C(F)(F)F)c3)ccc2C)ccn1", "note": "[Example 437, 4-methyl-3-((2′-(methylamino)-3,4′-bipyridin-2-yl)oxy)-N-(3-(trifluoromethyl)phenyl) benzamide]", "IC50": "< 5"}
{"smiles": "CNc1cc(-c2cccnc2Oc2cc(C(=O)Nc3cccc(OC(F)(F)F)c3)ccc2C)ccn1", "note": "[Example 438, 4-methyl-3-((2′-(methylamino)-3,4′-bipyridin-2-yl)oxy)-N-(3-((trifluoromethyl)oxy)phenyl)benzamide]", "IC50": "< 5"}
{"smiles": "CNc1cc(-c2cccnc2Oc2cc(C(=O)Nc3cccc(OC(F)(F)C(F)F)c3)ccc2C)ccn1", "note": "[Example 439, 4-methyl-3-((2′-(methylamino)-3,4′-bipyridin-2-yl)oxy)-N-(3-((1,1,2,2-tetrafluoroethyl)oxy)phenyl)benzamide]", "IC50": "< 5"}
